Reference: PubChem BioAssay (NCATS)
Inconclusive means that the source gave no clear call. Such entries were picked first, then a sample of the others. For some of these results: Where the call is inconclusive, the potency comes from a doubtful curve fit. The source made the active and inactive calls. Calls follow the shape of the dose curve; as a rule, active = well fitted curve in the direction sought with a large enough effect; inconclusive = small, poorly fitted or top-dose-only effect, or another doubt; inactive = no such curve, though single readings can be large; an effect the other way counts as inactive or inconclusive.

Protein sequences, listed by entry. Tags and fused reporters are not part of them. Lines headed by an entry give the natural chain unless they say otherwise; changes in a name come on top.
UniProt Q9UNA4: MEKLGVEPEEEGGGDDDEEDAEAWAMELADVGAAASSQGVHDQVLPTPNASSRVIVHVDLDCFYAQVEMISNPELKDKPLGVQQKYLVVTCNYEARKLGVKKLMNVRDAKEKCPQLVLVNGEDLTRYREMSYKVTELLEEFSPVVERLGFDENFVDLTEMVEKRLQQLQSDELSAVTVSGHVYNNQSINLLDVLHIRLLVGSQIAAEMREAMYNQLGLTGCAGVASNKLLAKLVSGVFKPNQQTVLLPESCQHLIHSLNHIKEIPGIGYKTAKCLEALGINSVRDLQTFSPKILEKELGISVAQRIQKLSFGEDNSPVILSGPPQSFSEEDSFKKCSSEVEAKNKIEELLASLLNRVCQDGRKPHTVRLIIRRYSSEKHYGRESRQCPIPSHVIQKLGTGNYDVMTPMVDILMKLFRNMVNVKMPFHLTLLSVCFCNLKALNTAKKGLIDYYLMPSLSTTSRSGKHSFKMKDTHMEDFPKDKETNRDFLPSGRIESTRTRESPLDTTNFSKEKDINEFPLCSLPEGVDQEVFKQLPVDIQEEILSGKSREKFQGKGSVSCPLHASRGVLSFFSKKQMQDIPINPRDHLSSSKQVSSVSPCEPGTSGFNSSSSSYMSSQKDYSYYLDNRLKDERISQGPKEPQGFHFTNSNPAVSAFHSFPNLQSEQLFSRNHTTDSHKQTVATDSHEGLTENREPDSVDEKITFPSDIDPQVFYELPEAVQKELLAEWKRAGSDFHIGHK
UniProt Q9Y253: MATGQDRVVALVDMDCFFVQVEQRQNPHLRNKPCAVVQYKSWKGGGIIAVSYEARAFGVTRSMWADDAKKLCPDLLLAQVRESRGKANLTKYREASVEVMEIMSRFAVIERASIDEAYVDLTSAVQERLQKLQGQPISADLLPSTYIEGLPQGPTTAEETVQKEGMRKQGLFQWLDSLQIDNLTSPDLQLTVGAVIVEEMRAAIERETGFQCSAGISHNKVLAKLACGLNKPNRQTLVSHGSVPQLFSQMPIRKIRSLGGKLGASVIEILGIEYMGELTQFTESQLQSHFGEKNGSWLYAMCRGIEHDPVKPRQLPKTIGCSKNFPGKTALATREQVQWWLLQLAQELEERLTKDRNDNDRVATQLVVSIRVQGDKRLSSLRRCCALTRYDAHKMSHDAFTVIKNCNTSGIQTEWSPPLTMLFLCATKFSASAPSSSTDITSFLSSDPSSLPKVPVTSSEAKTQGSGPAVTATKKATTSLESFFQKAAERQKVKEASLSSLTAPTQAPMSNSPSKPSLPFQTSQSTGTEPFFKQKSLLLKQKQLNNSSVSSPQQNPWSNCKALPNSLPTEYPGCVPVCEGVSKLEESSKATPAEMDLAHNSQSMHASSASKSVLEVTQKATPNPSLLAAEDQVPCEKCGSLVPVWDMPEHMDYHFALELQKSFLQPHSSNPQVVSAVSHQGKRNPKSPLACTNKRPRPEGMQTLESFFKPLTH
UniProt P11473: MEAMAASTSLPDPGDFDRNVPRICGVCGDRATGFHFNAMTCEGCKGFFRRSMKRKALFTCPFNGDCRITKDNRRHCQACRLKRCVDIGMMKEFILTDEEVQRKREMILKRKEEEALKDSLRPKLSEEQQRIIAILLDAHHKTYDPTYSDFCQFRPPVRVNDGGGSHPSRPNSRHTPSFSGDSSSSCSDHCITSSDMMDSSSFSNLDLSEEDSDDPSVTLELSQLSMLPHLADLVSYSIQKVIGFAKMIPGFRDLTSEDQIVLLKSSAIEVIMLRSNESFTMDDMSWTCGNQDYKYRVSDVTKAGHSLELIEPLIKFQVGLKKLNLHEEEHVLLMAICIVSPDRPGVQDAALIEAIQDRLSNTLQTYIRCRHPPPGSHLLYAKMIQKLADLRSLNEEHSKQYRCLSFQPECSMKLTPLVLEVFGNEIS
UniProt Q99816: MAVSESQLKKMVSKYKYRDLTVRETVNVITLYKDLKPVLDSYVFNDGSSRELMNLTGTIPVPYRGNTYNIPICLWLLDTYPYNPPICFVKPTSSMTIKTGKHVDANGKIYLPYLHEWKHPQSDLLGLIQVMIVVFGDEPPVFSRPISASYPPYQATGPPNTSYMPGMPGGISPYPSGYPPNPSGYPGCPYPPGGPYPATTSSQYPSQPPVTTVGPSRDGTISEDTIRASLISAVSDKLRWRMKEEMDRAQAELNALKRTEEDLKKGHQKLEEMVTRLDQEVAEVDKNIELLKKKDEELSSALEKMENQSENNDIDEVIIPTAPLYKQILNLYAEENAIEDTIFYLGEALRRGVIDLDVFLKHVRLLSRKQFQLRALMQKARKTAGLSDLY

What was measured:
[1] = target: DNA polymerase iota (Homo sapiens) (UniProt Q9UNA4); assay: qHTS for Inhibitors of Polymerase Iota: Confirmatory Assay for Cherry-picked Compounds (AID 720496); settings: Pol iota primer extension, TAMRA/BHQ fluorescence; also: potency is read from the fitted curve at half-maximal effect
Procedure, shortened: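 Read-out is TAMRA fluorescence (525 nm excitation, 598 nm emission) at 0 and 10 min. It reflects strand displacement from a BHQ-2-quenched template by 10 nM Pol iota, with 50 nM final substrate after 15 min compound preincubation.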

[2] = target: DNA polymerase eta (Homo sapiens) (UniProt Q9Y253); assay: qHTS for Inhibitors of Polymerase Eta: Confirmatory Assay for Cherry-picked Compounds (AID 720502); settings: Pol eta primer extension, TAMRA/BHQ fluorescence, 10 min; also: potency is read from the fitted curve at half-maximal effect
Procedure, shortened: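 Enzyme at 10 nM is mixed with pin-transferred compound and left 15 min at room temperature. Substrate (50 nM final) is then added, and plates are read at 0 min and after 10 min.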

[3] = target: Rap guanine nucleotide exchange factor 3 (Homo sapiens) (UniProt O95398); assay: Confirmatory qHTS for antagonist of cAMP-regulated guanine nucleotide exchange factor 3 (EPAC1) (AID 1645880); settings: EPAC1 Rap1B-BODIPY-GDP exchange, fluorescence; activity, negative = inhibition: at 115 µM (top of the series); also: potency is read from the fitted curve at half-maximal effect; nearly all actives have a fitted effect of over 55% in size
Procedure, shortened: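 Nucleotide exchange uses 100 nM EPAC1, 250 nM RAP1B-BODIPY-GDP and 50 uM GDP, with compounds in a concentration-titration series. After 5 min at room temperature, fluorescence (480 nm ex/540 nm em) is read every 5 min for 30 min. Data are normalized to control ATA and DMSO.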

[4] = target: Rap guanine nucleotide exchange factor 3 (Homo sapiens) (UniProt O95398); assay: Counterscreen qHTS for agonist of cAMP-regulated guanine nucleotide exchange factor 3 (EPAC1) (AID 1645889); settings: EPAC1 Rap1B-BODIPY-GDP exchange, fluorescence; activation: at 154 µM (top of the series) unless noted; also: nearly all actives have a fitted effect of over 40% in size; also: potency is read from the fitted curve at half-maximal effect; as to activation: % of control where 0% means no effect
Procedure, shortened: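 Rap1B–BODIPY-GDP (250 nM) with 50 uM GDP; compounds pin-transferred to 9.74 nM–152 uM final (activator) or from 7.32 nM upwards (inhibitor). Fluorescence Ex/Em 480/540 nm read at 5 and 30 min, then after adding cAMP or buffer, at room temperature.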

[5] = qHTS for Inhibitors of the vitamin D receptor (VDR): Hit Validation using a Texas Red Assay (AID 602201); settings: VDR coregulator binding, Texas Red fluorescence polarization, agonist-bound VDR ligand-binding domain; series mostly up to 57.1 µM; also: potency is read from the fitted curve at half-maximal effect
Procedure, shortened: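 Fluorescence polarization with 1.5 uM VDR-LBD, LG19078 and 7 nM Texas Red (final). After 2 hours at ambient temperature, read at Ex 595 nm/Em 615 nm.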

[6] = target: Vitamin D3 receptor (Homo sapiens) (UniProt P11473); assay: qHTS for Inhibitors of the vitamin D receptor (VDR): Hit Validation using a Beta-Lactamase Assay (AID 602202); settings: VDR beta-lactamase reporter cells, FRET ratio, cells co-treated with VDR agonist LG190178; series mostly up to 46.1 µM; also: potency is read from the fitted curve at half-maximal effect
Procedure, shortened: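 Stably transfected HEK293 cells expressing VDR-GAL4 DNA-binding domain fusion with UAS-driven beta-lactamase reporter, activated by agonist LG190178; compounds incubated 18 h, then FRET beta-lactam substrate 2 h; cleaved substrate read at 447 nm emission.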

[7] = qHTS for Inhibitors of the vitamin D receptor (VDR): Hit Validation using a Cytotoxicity Assay (AID 602204); settings: cytotoxicity counter-screen, cell viability; series mostly up to 48.3 µM; also: nearly all actives have a fitted effect of over 75% in size
Procedure, shortened: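 First, 20,000 cells are dispensed per well. Next comes a 4 h incubation, then compound addition and an 18 h incubation. Finally, ATP-based luminescent reagent is added and plates are read after 30 min.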

[8] = qHTS for Inhibitors of WRN Helicase: Thiazole Orange DNA Binding Counterscreen (AID 720499); settings: thiazole orange DNA binding displacement, fluorescence; series mostly up to 57.1 µM;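 also: drop in dye fluorescence marks compound binding to DNA; potency is read from the fitted curve at half-maximal effect; nearly all actives have a fitted effect of over 60% in size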
Procedure, shortened: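 Thiazole orange displacement counterscreen: compounds added to 50 nM unlabeled DNA with 100 nM ThO. Fluorescence (ex 480, em 530 nm) read after 15 min at room temperature; activity flags nonspecific DNA binding.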

[9] = target: Tumor susceptibility gene 101 protein (Homo sapiens) (UniProt Q99816); assay: qHTS Assay for Iinhibitors of HIV-1 Budding by Blocking the Interaction of PTAP/TSG101: Hit Validation (AID 651600); settings: PTAP peptide/TSG101 UEV interaction, biochemical assay; series mostly up to 57.5 µM; also: potency is read from the fitted curve at half-maximal effect; nearly all actives have a fitted effect of over 70% in size
Procedure, shortened: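 Fluorescence polarization binding assay: Tsg101 binding domain (10 uM) mixed with compounds and FITC-labeled PTAP peptide (50 nM) in HEPES pH 7.5, 0.15 M NaCl, 0.01% Tween 20, EDTA, TCEP; 20 min at r.t.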

[10] = qHTS Assay for the Inhibitors of L3MBTL1: Hit Validationin AlphaScreen Counterscreen (AID 602224); settings: signal inhibition; series mostly up to 57.1 µM
Procedure, shortened: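 Bead-bridging control using 1 nM b-His6 linking streptavidin donor and nickel chelate acceptor beads (10 ug/mL each, final). Compound exposure 15 min, then beads, 30 min dark incubation at room temperature before AlphaScreen reading.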

## COc1ccc(N2Cc3cccc(C(=O)Nc4ccc(C(C)C)cc4)c3C2=O)cc1
[1]
  Potency: inconclusive: 75.2 µM [inhibitor, partial curve]
[2]
  Potency: inconclusive: 95.3 µM [inhibitor, single point]
[3]
  Potency: inconclusive: 84.9 µM [inhibitor, partial curve]
[4]
  activation: inconclusive: 52% [activator]

## COc1ccc(S(=O)(=O)Nc2cc(SCC(=O)O)c(O)c3ccccc23)cc1
[5]
  Potency: active: 3.55 µM
[6]
  Potency: inconclusive: 29.1 µM [inhibitor, single point]
[7]
  Potency: inconclusive: 21.2 µM [cytotoxic, single point]
[1]
  Potency: inconclusive: 84.4 µM [inhibitor, single point]
[2]
  Potency: inconclusive: 95.3 µM [inhibitor, single point]
[3]
  Potency: inconclusive: 84.9 µM [inhibitor, partial curve]
[4]
  Potency: active: 56.2 µM

## CC(=O)Nc1ccc(C=NNc2ccc(S(=O)(=O)Nc3ccccc3C(=O)O)cc2[N+](=O)[O-])cc1
[1]
  Potency: inconclusive: 84.4 µM [inhibitor, single point]
[3]
  Potency: active: 28.2 µM
[4]
  activation: inactive: 13.4% [at 30.8 µM]

## O=C1C=CC(=O)c2c(O)c(N3CCN(CCOCCO)CC3)c(Br)c(O)c21
[1]
  Potency: active: 2.12 µM
[3]
  Potency: active: 9.53 µM
[4]
  Potency: inconclusive: 50.1 µM [activator, partial curve, poor fit]

## CNc1ccc(Br)cc(C(=O)/C=C/c2ccc(Cl)cc2Cl)c1=O
[5]
  Potency: inconclusive: 25.1 µM [inhibitor, partial curve]
[6]
  Potency: inconclusive: 32.6 µM [inhibitor, single point]
[7]
  Potency: inactive
[3]
  Potency: active: 12 µM
[4]
  activation: inconclusive: 43.4% [activator]

## O=C(CCc1ccc(O)c(O)c1)N/N=C/c1cc2c(cc1[N+](=O)[O-])OCO2
[1]
  Potency: inconclusive: 0.0053 µM [inhibitor, full curve, poor fit]
[8]
  Potency: active: 30.4 µM
[2]
  Potency: active: 30.1 µM
[3]
  Potency: active: 23.9 µM
[4]
  activation: inconclusive: 42.5% [activator]

## O=C(O)c1ccc(C=C(c2nc3ccccc3s2)c2nc3ccccc3s2)cc1
[5]
  Potency: inconclusive: 31.6 µM [inhibitor, partial curve]
[7]
  Potency: inactive
[2]
  Potency: inconclusive: 95.3 µM [inhibitor, single point]
[3]
  Potency: active: 42.6 µM
[4]
  activation: inconclusive: 36.6% [activator]

## CCc1cccc2cc3c(N)c(C(=O)Nc4ccc(S(=O)(=O)N5CCCC5)cc4)sc3nc12
[9]
  Potency: inconclusive: 5.17 µM [inhibitor, full curve]
[3]
  Potency: active: 75.7 µM
[4]
  Potency: inactive

## NS(=O)(=O)c1ccc(NC2=CC(=O)C(=O)c3ccccc32)cc1
[5]
  Potency: inconclusive: 28.2 µM [inhibitor, single point]
[6]
  Potency: inconclusive: 23.1 µM [inhibitor, single point]
[7]
  Potency: inconclusive: 29.9 µM [cytotoxic, single point]
[1]
  Potency: inconclusive: 84.4 µM [inhibitor, single point]
[2]
  Potency: inconclusive: 84.9 µM [inhibitor, single point]
[3]
  Potency: active: 26.9 µM
[4]
  Potency: inconclusive: 15.8 µM [activator, partial curve, poor fit]

## N=C1/C(=C\c2ccc(-c3cccc(Cl)c3)o2)C(=O)N=C2SC=C(c3ccccc3)N12
[10]
  Potency: inconclusive: 13.4 µM [inhibitor, partial curve]
[3]
  Potency: inconclusive: 10.7 µM [inhibitor, full curve]
[4]
  Potency: inconclusive: 11.2 µM [activator, partial curve, poor fit]

## CCOc1ccc(/C=C/C(=O)c2c(O)c3ccccc3oc2=O)cc1
[5]
  Potency: inconclusive: 3.98 µM [inhibitor, partial curve, poor fit]
[6]
  Potency: inactive
[7]
  Potency: inconclusive: 11.2 µM [rising, partial curve, poor fit]
[3]
  Potency: inconclusive: 33.8 µM [inhibitor, partial curve]
[4]
  Potency: inactive

## O=C(NC1(O)C(=O)c2ccccc2C1=O)c1ccc(C(F)(F)F)cc1
[5]
  Potency: inconclusive: 0.631 µM [inhibitor, partial curve, poor fit]
[6]
  Potency: inactive
[2]
  Potency: inconclusive: 84.9 µM [inhibitor, single point]
[3]
  Potency: inconclusive: 42.6 µM [inhibitor, partial curve]
[4]
  Potency: inconclusive: 11.2 µM [activator, partial curve]
